Data taken from publication PMC8369502, “High-Throughput Drug Screening System Based on Human Induced Pluripotent Stem Cell-Derived Atrial Myocytes ∼ A Novel Platform to Detect Cardiac Toxicity for Atrial Arrhythmias” (Frontiers in Pharmacology, 2021).

How the values were obtained:
[1] = system: CT (control hiPS-CMs without RA, ventricular-like); test: High-throughput membrane potential recording (FluoVolt, FDSS/μCell) in CT; assay type: cell-based, human
Procedure: (§1) Using a high-throughput screening system (FDSS/μCell), we assessed the drug toxicity of several experimental drugs on hiPS-derived atrial myocytes as well as control hiPS-derived cardiomyocytes. Membrane potential was used as one of the parameters during the assessment.
(§2) After purification, hiPS-derived cardiomyocytes were plated in 96-well plates for downstream drug response assessment using FluoVolt™ Membrane Potential Kit. […] The comparison of variance in the response of drug administration in CT and AM was represented by the percentage of changes based on their baseline values respectively.
(§3) FluoVolt™ Membrane Potential Kit (ThermoFisher […], F10488, Massachusetts, United States) was used to measure membrane potentials. The basic procedure was performed in accordance with the manufacturer’s instructions. […] MP were recorded at excitation and emission stages at wavelengths of 470 and 540 nm, respectively. […] Stock solutions of the test compounds were prepared in 100% DMSO, and serially diluted 1/40 into compound plates for testing (0.5% DMSO was the maximum concentration in all wells). The compounds were automatically pipetted from the compound plate, and 12 μL was loaded in the wells already containing the cells with 48 μL of media. Recording data were analyzed using Waveform Analysis of Cardiomyocyte Software (Ver.1.2.1J, Hamamatsu Photonics K.K.). Data values for a well were averaged from waveforms that arose during 30 s. The beat rate (BR; beats per minute), waveform amplitude (AMP), and duration at 30, 50, and 80% of decay (PWD30, PWD 50, and PWD 80, respectively) were used as evaluation parameters. PWDs were corrected using the Fridericia formula. PWD30-80 was calculated as the difference between PWD80 and PWD30. Each parameter was calculated as percentage change (%) from the value before test compound addition.

[2] = system: AM (RA-treated hiPS-CMs, atrial-like); test: High-throughput membrane potential recording (FluoVolt, FDSS/μCell) in AM; assay type: cell-based, human
Procedure: as §1, §2, §3

[3] = CT, % change from value before compound addition, 10 min after addition (Bay K 8644: 3 min)
[4] = CT, concentration range as stated in the source
[5] = AM, % change from value before compound addition, 10 min after addition (Bay K 8644: 3 min)
[6] = AM, concentration range as stated in the source

Question: With `COc1cc2c(cc1OC)C(=O)C(CC1CCN(Cc3ccccc3)CC1)C2` (stereo not shown) [Donepezil] as the molecule, how does the “PWD30-80 (in words)” value ([1]; CT) read?
Answer: prolonged

Question: What about the “PWD80cF (in words)” value ([1]; CT) of the same molecule?
Answer: prolonged

Question: What about the “Falling Slope” value [1, 3] of the same molecule?
Answer: ↓

Question: What about the PWD80cF [1, 3] of the same molecule?
Answer: ↑

Question: What about the “Rising Slope” value [1, 3] of the same molecule?
Answer: ↓

Question: What about the “beating rate (in words)” value [1, 4] of the same molecule?
Answer: dose-dependent decrease

Question: What about the “falling slope of membrane potential (in words)” value [1, 4] of the same molecule?
Answer: dose-dependent decrease

Question: What about the “rising slope of membrane potential (in words)” value [1, 4] of the same molecule?
Answer: dose-dependent decrease

Question: What about the “EAD (count printed in the figure)” value ([1]; human, 10 min) of the same molecule?
Answer: 2/6

Question: What about the “arrest (count printed in the figure)” value ([1]; human, 10 min) of the same molecule?
Answer: 4/6

Question: And the “concentration at which cessation of beating was elicited” value ([1]; human, 10 min)?
Answer: higher than 30 μM

Question: What about the “EAD observed (cases)” value ([1]; human, 10 min, 10 μM) of the same molecule?
Answer: 2 of 6

Question: And the “cessation of beating / arrest (cases)” value ([1]; human, 10 min, 10 μM)?
Answer: 4

Question: What about the “incidence of arrhythmia-like waveforms: EAD” value ([1]; human, 10 min, 10 μM) of the same molecule?
Answer: 33%

Question: What about the “incidence of arrhythmia-like waveforms: arrest” value ([1]; human, 10 min, 10 μM) of the same molecule?
Answer: 67%

Question: What about the “PWD30-80 (in words)” value ([2]; AM) of the same molecule?
Answer: prolonged

Question: And the “PWD80cF (in words)” value ([2]; AM)?
Answer: prolonged

Question: What about the “Beat Rate” value [2, 5] of the same molecule?
Answer: ↓

Question: And the “Falling Slope” value [2, 5]?
Answer: ↓

Question: And the PWD30cF [2, 5]?
Answer: ↑

Question: What about the PWD80cF [2, 5] of the same molecule?
Answer: ↑

Question: What about the “Rising Slope” value [2, 5] of the same molecule?
Answer: ↓

Question: And the “beating rate (in words)” value [2, 6]?
Answer: dose-dependent decrease

Question: And the “falling slope of membrane potential (in words)” value [2, 6]?
Answer: dose-dependent decrease

Question: What about the “rising slope of membrane potential (in words)” value [2, 6] of the same molecule?
Answer: dose-dependent decrease

Question: And the “arrest (count printed in the figure)” value ([2]; human, 10 min)?
Answer: 6/6

Question: And the “concentration at which cessation of beating was elicited” value ([2]; human, 10 min)?
Answer: higher than 30 μM

Question: And the “incidence of arrhythmia-like waveforms: arrest” value ([2]; human, 10 min, 10 μM)?
Answer: 100%
